From US10760052B2, “Method of inhibiting tau phosphorylation” (priority 2012, dated 2020)
At least one compound was matched to its structure with a doubt left.

Protein sequences, listed by entry. Tags and fused reporters are not part of them. Residues count along the entry.
UniProt P36544, 23-502: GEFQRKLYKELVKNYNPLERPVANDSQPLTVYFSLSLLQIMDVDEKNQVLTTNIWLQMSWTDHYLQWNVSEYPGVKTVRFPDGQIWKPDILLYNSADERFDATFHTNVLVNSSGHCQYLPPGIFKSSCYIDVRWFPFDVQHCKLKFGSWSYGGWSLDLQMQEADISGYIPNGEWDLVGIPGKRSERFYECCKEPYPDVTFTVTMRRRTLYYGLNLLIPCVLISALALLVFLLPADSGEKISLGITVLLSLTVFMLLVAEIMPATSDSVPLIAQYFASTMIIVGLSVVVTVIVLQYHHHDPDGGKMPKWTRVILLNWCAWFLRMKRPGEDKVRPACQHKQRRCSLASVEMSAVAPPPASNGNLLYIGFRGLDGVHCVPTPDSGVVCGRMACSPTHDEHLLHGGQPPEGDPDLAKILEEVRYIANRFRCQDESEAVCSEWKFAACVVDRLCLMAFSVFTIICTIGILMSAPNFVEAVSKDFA

Biological target: T1, α7nAChR-FLNA complex (Homo sapiens, UniProt P36544)
T1 construct: In postmortem control frontocortical tissue, Aβ42-induced FLNA recruitment to α7nAChRs was mimicked; from tissue; host or cells: postmortem frontal cortex of control subjects
Type: cell-based
Conditions: postmortem control frontocortical tissue
Protocol: Incubation continued for 1 hour in the dark. […] The reaction was terminated by the addition of 1.5 ml of ice-cold Ca^2+-free K-R, and slices were collected by a brief centrifugation.
Solubilized immunoprecipitates derived from co-immunoprecipitation assays were separated by either 7.5 or 10% SDS-PAGE and then electrophoretically transferred to nitrocellulose membranes. The membranes were washed with PBS and blocked overnight (about 18 hours) at 4° C. with 10% milk in PBS with 0.1% Tween®-20 (PBST). Following three 5-minute washes with 0.1% PBST, the membranes were incubated at room temperature for 2 hours with antibody of choice at 1:500-1:1,000 dilutions. After three 2-minute washes in 0.1% PBST, membranes were incubated for 1 hour with anti-species IgG-HRP (1:5,000 dilution) and washed with 0.1% PBST three times, 2-minutes each. Immunoreactivity was visualized by reacting with chemiluminescent reagent (Pierce-ENDOGEN) for exactly 5 minutes and immediately exposing to X-ray film. Specific bands were quantified by densitometric scanning (GS-800 calibrated densitometer, Bio-Rad Laboratories).

COc1ccc2c3c1O[C@H]1C[C@@H](O)C=C[C@@]31CCN(C)C2 [Galantamine, galantamine]
FLNA/α7nAChR ratio (1 μM agent): 0.08 ± 0.02
FLNA recruitment to α7nAChRs (in words): showed no effect
